PubChem BioAssay AID1053209 – Peter MacCallum Cancer Centre – 2014
This is an unselected part of about 1,580 reagents. Of all reagents, 207 (13%) got an active call. 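Rows are single siRNAs; four siRNAs per gene were tested, a gene counting as confirmed only when at least two agree.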 The numbers tell different reagents against one gene apart.

- Test: 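Gene losses that combine with doxorubicin to kill mouse bone cancer cells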 (follow-up of hits)
- System: mouse primary osteosarcoma cells
- Reagents: single siRNA against mouse genes, 25 nM (text also states 40 nM)
- Time to read-out: about 120 h (48 h before drug, then 72 h with drug)
- Treatment: doxorubicin 100 nM (about IC30-40), added 48 h after transfection, for 72 h
- Detection: 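ATP-based luminescent viability, with or without doxorubicin, relative to non-targeting control NT1, mean of two replicates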
- Scale: viability with doxorubicin, vs NT1: higher = more viable cells under doxorubicin; viability ratio, doxorubicin over no drug: higher = less sensitisation to doxorubicin; viability without drug, vs NT1: higher = more viable cells without drug
- Call rule: 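Active when doxorubicin viability is at most 0.7 of NT1 and drug-free viability lies between 0.7 and 1.1, class LC dox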

gene | siRNA no. | combined effect class | viability with doxorubicin, vs NT1 | viability ratio, doxorubicin over no drug | viability without drug, vs NT1 | Call
Rps10 | 1 | normal viability with and without drug | 0.94 | 1.09 | 0.86 | inactive
Rps10 | 2 | low viability with and without drug | 0.69 | 1.01 | 0.68 | inactive
Rps10 | 3 | normal viability with and without drug | 1.06 | 1.1 | 0.96 | inactive
Rps10 | 4 | high viability only with doxorubicin | 1.23 | 1.18 | 1.04 | inactive
Copb2 | 1 | low viability with and without drug | 0.37 | 0.64 | 0.58 | inactive
Copb2 | 2 | low viability with and without drug | 0.08 | 0.36 | 0.22 | inactive
Copb2 | 3 | low viability with and without drug | 0.48 | 0.74 | 0.65 | inactive
Copb2 | 4 | normal viability with and without drug | 0.95 | 1.03 | 0.92 | inactive
Mrps16 | 1 | normal viability with and without drug | 1.04 | 1.13 | 0.92 | inactive
Mrps16 | 2 | normal viability with and without drug | 0.95 | 0.99 | 0.96 | inactive
Mrps16 | 3 | normal viability with and without drug | 0.9 | 1.05 | 0.86 | inactive
Mrps16 | 4 | normal viability with and without drug | 0.76 | 0.85 | 0.89 | inactive
Snrpa | 1 | normal viability with and without drug | 0.96 | 0.99 | 0.97 | inactive
Snrpa | 2 | normal viability with and without drug | 0.94 | 1.07 | 0.88 | inactive
Snrpa | 3 | normal viability with and without drug | 0.76 | 0.79 | 0.96 | inactive
Snrpa | 4 | normal viability with and without drug | 0.9 | 0.94 | 0.96 | inactive
U2surp | 1 | normal viability with and without drug | 0.9 | 0.93 | 0.97 | inactive
U2surp | 2 | normal viability with and without drug | 0.93 | 0.99 | 0.94 | inactive
U2surp | 3 | normal viability with and without drug | 0.92 | 0.88 | 1.05 | inactive
U2surp | 4 | high viability only with doxorubicin | 1.1 | 1.06 | 1.04 | inactive
Topbp1 | 1 | normal viability with and without drug | 0.77 | 0.82 | 0.94 | inactive
Topbp1 | 2 | normal viability with and without drug | 0.79 | 0.89 | 0.89 | inactive
Topbp1 | 3 | normal viability with and without drug | 0.76 | 0.9 | 0.84 | inactive
Topbp1 | 4 | low viability only with doxorubicin; normal without drug | 0.68 | 0.83 | 0.82 | active
Prkaa1 | 1 | normal viability with and without drug | 0.86 | 0.99 | 0.87 | inactive
Prkaa1 | 2 | normal viability with and without drug | 1.05 | 0.97 | 1.08 | inactive
Prkaa1 | 3 | normal viability with and without drug | 0.96 | 0.92 | 1.04 | inactive
Prkaa1 | 4 | normal viability with and without drug | 0.98 | 0.93 | 1.05 | inactive
Rhoh | 1 | normal viability with and without drug | 1.02 | 1.03 | 0.99 | inactive
Rhoh | 2 | normal viability with and without drug | 1.02 | 0.96 | 1.06 | inactive
Rhoh | 3 | normal viability with and without drug | 0.72 | 0.88 | 0.82 | inactive
Rhoh | 4 | normal viability with and without drug | 1.08 | 1 | 1.08 | inactive
Zfx | 1 | normal viability with and without drug | 0.9 | 0.96 | 0.94 | inactive
Zfx | 2 | high viability only with doxorubicin | 1.1 | 1.12 | 0.98 | inactive
Zfx | 3 | normal viability with and without drug | 0.98 | 0.94 | 1.04 | inactive
Zfx | 4 | high viability only with doxorubicin | 1.15 | 1.17 | 0.98 | inactive
Snrpe | 1 | low viability with and without drug | 0.16 | 0.44 | 0.36 | inactive
Snrpe | 2 | low viability with and without drug | 0.08 | 0.28 | 0.29 | inactive
Snrpe | 3 | low viability with and without drug | 0.26 | 0.68 | 0.38 | inactive
Snrpe | 4 | low viability with and without drug | 0.15 | 0.45 | 0.33 | inactive

Next part (7 carried over from the part before).
gene | siRNA no. | combined effect class | viability with doxorubicin, vs NT1 | viability ratio, doxorubicin over no drug | viability without drug, vs NT1 | Call
Zfx | 2 | high viability only with doxorubicin | 1.1 | 1.12 | 0.98 | inactive
Zfx | 3 | normal viability with and without drug | 0.98 | 0.94 | 1.04 | inactive
Zfx | 4 | high viability only with doxorubicin | 1.15 | 1.17 | 0.98 | inactive
Snrpe | 1 | low viability with and without drug | 0.16 | 0.44 | 0.36 | inactive
Snrpe | 2 | low viability with and without drug | 0.08 | 0.28 | 0.29 | inactive
Snrpe | 3 | low viability with and without drug | 0.26 | 0.68 | 0.38 | inactive
Snrpe | 4 | low viability with and without drug | 0.15 | 0.45 | 0.33 | inactive
Rps24 | 1 | low viability with and without drug | 0.42 | 1.31 | 0.32 | inactive
Rps24 | 2 | low viability with and without drug | 0.52 | 1.3 | 0.4 | inactive
Rps24 | 3 | low viability with and without drug | 0.28 | 0.47 | 0.6 | inactive
Rps24 | 4 | low viability with and without drug | 0.24 | 0.5 | 0.48 | inactive
Rps15a | 1 | low viability with and without drug | 0.36 | 0.68 | 0.53 | inactive
Rps15a | 2 | low viability with and without drug | 0.54 | 0.98 | 0.55 | inactive
Rps15a | 3 | low viability with and without drug | 0.22 | 0.79 | 0.28 | inactive
Rps15a | 4 | low viability with and without drug | 0.29 | 0.67 | 0.43 | inactive
Rpl27a | 1 | low viability only with doxorubicin; normal without drug | 0.43 | 0.51 | 0.84 | active
Rpl27a | 2 | low viability with and without drug | 0.51 | 0.8 | 0.64 | inactive
Rpl27a | 3 | low viability with and without drug | 0.32 | 0.52 | 0.62 | inactive
Rpl27a | 4 | low viability only with doxorubicin; normal without drug | 0.59 | 0.77 | 0.77 | active
Cse1l | 1 | low viability with and without drug | 0.44 | 0.65 | 0.68 | inactive
Cse1l | 2 | low viability with and without drug | 0.17 | 0.47 | 0.36 | inactive
Cse1l | 3 | normal viability with and without drug | 0.92 | 1 | 0.92 | inactive
Cse1l | 4 | low viability only with doxorubicin; normal without drug | 0.68 | 0.77 | 0.88 | active
Snrpd3 | 1 | low viability only with doxorubicin; normal without drug | 0.62 | 0.7 | 0.88 | active
Snrpd3 | 2 | low viability with and without drug | 0.16 | 0.26 | 0.62 | inactive
Snrpd3 | 3 | low viability with and without drug | 0.1 | 0.34 | 0.29 | inactive
Snrpd3 | 4 | low viability with and without drug | 0.15 | 0.29 | 0.52 | inactive
Sdr16c5 | 1 | normal viability with and without drug | 1.06 | 1.04 | 1.02 | inactive
Sdr16c5 | 2 | low viability with and without drug | 0.28 | 0.52 | 0.54 | inactive
Sdr16c5 | 3 | low viability only with doxorubicin; normal without drug | 0.7 | 0.85 | 0.82 | active
Sdr16c5 | 4 | normal viability with and without drug | 0.71 | 0.77 | 0.92 | inactive
Rpa2 | 1 | low viability only with doxorubicin; normal without drug | 0.6 | 0.64 | 0.94 | active
Rpa2 | 2 | low viability only with doxorubicin; normal without drug | 0.34 | 0.48 | 0.71 | active
Rpa2 | 3 | normal viability with and without drug | 0.77 | 0.83 | 0.93 | inactive
Rpa2 | 4 | low viability with and without drug | 0.38 | 0.54 | 0.7 | inactive
Eif3b | 1 | low viability with and without drug | 0.45 | 0.85 | 0.53 | inactive
Eif3b | 2 | low viability with and without drug | 0.27 | 0.59 | 0.46 | inactive
Eif3b | 3 | low viability with and without drug | 0.45 | 0.69 | 0.65 | inactive
Eif3b | 4 | low viability only with doxorubicin; normal without drug | 0.4 | 0.56 | 0.72 | active
Tcstv3 | 1 | normal viability with and without drug | 1 | 1.08 | 0.93 | inactive
Tcstv3 | 2 | normal viability with and without drug | 0.99 | 1.1 | 0.9 | inactive
Tcstv3 | 3 | normal viability with and without drug | 0.75 | 0.78 | 0.96 | inactive
Tcstv3 | 4 | normal viability with and without drug | 0.98 | 1.14 | 0.86 | inactive
